According to US20240189391A1:
Results are given in words; binding and its absence hold for the method and conditions named. Some results given as binding are weak or reduced against the parent protein; the word gives no strength. For some of these results: Tags and fused reporters may be left off the sequences shown.

Chains of the proteins cited; added tags and fusions are not shown. Lines headed by an entry give the natural chain unless they say otherwise; changes in a name come on top. Residues count along the entry.
UniProt P22004, residues 382-513: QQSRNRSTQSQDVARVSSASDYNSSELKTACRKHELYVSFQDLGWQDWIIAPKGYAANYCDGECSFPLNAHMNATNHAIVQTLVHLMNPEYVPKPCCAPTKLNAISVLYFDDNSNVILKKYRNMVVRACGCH
UniProt P36896: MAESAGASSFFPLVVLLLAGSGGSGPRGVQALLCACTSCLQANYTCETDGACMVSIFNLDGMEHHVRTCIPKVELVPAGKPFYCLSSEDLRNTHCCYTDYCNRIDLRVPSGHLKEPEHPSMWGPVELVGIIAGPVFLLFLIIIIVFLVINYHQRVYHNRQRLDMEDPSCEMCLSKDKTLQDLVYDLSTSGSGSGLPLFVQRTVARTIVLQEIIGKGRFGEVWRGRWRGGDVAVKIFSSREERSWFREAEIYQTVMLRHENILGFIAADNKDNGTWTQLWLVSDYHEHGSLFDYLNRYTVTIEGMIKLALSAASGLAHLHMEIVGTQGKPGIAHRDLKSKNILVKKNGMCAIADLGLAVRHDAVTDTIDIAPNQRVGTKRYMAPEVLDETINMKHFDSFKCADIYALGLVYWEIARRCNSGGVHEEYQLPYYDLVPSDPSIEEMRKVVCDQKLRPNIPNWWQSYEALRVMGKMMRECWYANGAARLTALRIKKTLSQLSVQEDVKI

T1: GDF3 (UniProt Q9NR23)
T1 sequence (looked up): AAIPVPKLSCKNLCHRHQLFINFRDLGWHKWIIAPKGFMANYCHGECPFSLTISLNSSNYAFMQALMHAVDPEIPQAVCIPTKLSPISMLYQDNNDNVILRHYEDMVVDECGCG

T2: Activin B (UniProt P09529)
T2 sequence (looked up): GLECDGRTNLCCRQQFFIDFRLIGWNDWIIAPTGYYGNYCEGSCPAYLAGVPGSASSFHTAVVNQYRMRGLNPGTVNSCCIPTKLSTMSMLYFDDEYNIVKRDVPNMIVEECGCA

T3: GDF8 (UniProt O14793)
T3 sequence (looked up): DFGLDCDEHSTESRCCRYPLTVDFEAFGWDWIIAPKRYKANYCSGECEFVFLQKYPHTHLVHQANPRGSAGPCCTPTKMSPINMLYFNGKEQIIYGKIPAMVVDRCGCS

T4: GDF11 (UniProt O95390)
T4 sequence (looked up): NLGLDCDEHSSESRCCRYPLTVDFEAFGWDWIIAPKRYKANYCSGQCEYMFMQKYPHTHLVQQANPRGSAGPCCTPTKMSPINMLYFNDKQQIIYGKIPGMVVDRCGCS


How the values were obtained:
GDF3 [1] = target: T1, GDF3; assay: SPR (Biacore), legend of FIG. 4
BMP6 [2] = target: BMP6 (UniProt P22004); assay: SPR (Biacore), legend of FIG. 4
GDF3 [3] = target: T1, GDF3; assay: SPR (Biacore), summary of the table
BMP6 [4] = target: BMP6 (UniProt P22004); assay: SPR (Biacore), summary of the table
Activin B = target: T2, Activin B; assay: SPR (Biacore), binding data recalled in the reporter assay text
GDF8 [5] = target: T3, GDF8; assay: as above
GDF11 [6] = target: T4, GDF11; assay: as above
GDF8 [7] = target: T3, GDF8; assay: SPR (Biacore), legend of FIG. 4
GDF11 [8] = target: T4, GDF11; assay: SPR (Biacore), legend of FIG. 4
GDF8 [9] = target: T3, GDF8; assay: SPR (Biacore), summary of the table
GDF11 [10] = target: T4, GDF11; assay: SPR (Biacore), summary of the table

binding (GDF3 [1]) | binding (BMP6 [2]) | binding (GDF3 [3]) | binding (BMP6 [4]) | binding (Activin B) | binding (GDF8 [5]) | binding (GDF11 [6]) | binding (GDF8 [7]) | binding (GDF11 [8]) | binding (GDF8 [9]) | binding (GDF11 [10]) | Molecule
binds | binds | binds | binds | – | – | – | – | – | – | – | ALK4-Fc:ActRIIB-Fc heterodimer (from UniProt P36896 24-126; Q13705 20-134) (Fc fusion)
– | binds | – | binds | binds | binds | binds | binds | binds | binds | binds | ActRIIB-Fc homodimer (Fc fusion, not shown: a dimerising Fc or GST) GRGEAETRECIYYNANWELERTNQSGLERCEGEQDKRLHCYASWRNSSGTIELVKKGCWLDDFNCYDRQECVATEENPQVYFCCCEGNFCNERFTHLPEAGGPEVTYEPPPTAPT
